{"sequences": {"note": "Amino acid sequences for entries named in this document (tags omitted). A change or cut given only in a name is not applied to a line headed by its entry.", "UniProt Q9UNZ2": "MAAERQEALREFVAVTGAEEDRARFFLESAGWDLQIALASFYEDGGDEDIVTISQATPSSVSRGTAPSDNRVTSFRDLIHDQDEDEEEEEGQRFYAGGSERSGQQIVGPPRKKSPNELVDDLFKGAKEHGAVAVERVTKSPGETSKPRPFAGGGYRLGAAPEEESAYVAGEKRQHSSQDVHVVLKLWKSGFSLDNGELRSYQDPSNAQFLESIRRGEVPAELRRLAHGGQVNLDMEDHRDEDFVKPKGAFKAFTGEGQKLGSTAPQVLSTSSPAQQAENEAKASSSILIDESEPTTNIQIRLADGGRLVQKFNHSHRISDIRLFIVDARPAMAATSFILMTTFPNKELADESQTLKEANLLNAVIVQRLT", "UniProt Q8IVD9": "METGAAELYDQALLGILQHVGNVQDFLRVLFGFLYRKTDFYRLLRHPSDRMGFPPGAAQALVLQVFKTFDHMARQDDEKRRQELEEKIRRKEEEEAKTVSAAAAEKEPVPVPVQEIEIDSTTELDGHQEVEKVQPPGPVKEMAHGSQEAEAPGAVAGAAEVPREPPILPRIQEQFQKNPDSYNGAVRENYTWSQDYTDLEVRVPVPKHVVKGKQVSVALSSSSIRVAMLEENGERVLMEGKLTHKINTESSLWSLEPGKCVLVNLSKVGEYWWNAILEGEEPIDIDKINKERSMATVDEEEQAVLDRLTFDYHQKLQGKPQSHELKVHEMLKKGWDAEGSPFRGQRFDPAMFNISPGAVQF", "UniProt O75414": "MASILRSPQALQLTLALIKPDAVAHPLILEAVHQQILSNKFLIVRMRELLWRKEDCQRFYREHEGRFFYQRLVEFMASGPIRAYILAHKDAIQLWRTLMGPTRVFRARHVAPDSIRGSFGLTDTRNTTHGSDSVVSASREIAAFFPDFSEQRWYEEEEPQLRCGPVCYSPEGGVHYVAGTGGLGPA", "UniProt Q9Y314": "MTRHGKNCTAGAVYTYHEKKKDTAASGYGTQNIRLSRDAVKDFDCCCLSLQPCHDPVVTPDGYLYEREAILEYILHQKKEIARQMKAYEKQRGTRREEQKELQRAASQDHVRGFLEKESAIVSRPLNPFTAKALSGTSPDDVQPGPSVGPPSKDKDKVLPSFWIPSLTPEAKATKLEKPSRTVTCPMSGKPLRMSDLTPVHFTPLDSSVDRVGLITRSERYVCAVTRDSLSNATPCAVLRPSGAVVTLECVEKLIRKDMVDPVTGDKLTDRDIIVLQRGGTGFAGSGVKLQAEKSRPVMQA", "UniProt P06748, whole entry, looked up": "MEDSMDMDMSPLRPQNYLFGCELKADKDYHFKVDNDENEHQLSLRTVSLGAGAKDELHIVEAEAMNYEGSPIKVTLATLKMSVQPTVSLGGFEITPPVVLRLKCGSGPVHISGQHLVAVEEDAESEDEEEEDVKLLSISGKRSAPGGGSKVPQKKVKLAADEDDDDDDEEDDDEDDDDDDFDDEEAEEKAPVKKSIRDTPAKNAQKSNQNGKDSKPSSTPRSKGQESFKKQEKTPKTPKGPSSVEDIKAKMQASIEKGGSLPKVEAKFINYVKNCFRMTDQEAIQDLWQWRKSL", "UniProt Q8WUM0": "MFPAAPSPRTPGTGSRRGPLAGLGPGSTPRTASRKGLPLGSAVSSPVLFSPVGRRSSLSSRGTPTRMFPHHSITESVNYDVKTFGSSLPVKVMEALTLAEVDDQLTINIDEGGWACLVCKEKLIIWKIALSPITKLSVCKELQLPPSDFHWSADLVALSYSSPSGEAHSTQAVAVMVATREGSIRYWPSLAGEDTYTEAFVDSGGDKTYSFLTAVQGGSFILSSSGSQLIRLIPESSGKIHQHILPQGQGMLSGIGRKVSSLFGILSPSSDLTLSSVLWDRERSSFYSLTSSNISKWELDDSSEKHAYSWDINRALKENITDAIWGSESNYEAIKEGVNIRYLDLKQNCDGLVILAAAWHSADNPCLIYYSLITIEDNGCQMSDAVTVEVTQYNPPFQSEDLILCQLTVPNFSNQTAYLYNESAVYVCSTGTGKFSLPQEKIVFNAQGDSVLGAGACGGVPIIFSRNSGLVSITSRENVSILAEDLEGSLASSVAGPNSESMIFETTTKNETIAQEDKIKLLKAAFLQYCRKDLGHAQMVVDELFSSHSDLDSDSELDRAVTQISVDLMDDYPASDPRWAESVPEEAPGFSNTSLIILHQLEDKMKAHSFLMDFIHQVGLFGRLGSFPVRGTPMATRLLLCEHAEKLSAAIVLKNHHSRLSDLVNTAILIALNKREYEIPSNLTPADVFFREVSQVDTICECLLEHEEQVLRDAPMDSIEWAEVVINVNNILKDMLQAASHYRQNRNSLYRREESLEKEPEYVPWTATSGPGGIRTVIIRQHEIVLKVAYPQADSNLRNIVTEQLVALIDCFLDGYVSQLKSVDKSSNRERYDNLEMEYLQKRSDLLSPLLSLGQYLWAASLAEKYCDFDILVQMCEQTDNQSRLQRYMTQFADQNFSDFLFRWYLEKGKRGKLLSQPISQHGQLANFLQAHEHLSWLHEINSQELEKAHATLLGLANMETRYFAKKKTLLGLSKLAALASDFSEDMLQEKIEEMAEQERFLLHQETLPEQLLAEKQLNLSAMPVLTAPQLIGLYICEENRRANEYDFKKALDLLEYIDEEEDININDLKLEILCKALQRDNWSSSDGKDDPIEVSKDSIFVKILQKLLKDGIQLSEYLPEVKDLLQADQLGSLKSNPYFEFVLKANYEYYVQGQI", "UniProt Q9H857": "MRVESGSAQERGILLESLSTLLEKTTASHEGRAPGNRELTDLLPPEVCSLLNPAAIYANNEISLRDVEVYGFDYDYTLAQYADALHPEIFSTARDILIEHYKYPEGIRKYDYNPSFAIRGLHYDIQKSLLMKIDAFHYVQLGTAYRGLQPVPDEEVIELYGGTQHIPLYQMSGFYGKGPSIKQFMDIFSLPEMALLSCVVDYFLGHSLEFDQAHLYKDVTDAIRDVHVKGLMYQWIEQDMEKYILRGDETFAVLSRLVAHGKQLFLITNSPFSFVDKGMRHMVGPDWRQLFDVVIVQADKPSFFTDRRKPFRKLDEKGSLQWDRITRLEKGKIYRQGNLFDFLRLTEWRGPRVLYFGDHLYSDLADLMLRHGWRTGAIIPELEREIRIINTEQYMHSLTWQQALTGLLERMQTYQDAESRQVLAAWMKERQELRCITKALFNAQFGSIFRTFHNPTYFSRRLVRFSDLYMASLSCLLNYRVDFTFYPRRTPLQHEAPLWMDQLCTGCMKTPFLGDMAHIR", "UniProt Q14980": "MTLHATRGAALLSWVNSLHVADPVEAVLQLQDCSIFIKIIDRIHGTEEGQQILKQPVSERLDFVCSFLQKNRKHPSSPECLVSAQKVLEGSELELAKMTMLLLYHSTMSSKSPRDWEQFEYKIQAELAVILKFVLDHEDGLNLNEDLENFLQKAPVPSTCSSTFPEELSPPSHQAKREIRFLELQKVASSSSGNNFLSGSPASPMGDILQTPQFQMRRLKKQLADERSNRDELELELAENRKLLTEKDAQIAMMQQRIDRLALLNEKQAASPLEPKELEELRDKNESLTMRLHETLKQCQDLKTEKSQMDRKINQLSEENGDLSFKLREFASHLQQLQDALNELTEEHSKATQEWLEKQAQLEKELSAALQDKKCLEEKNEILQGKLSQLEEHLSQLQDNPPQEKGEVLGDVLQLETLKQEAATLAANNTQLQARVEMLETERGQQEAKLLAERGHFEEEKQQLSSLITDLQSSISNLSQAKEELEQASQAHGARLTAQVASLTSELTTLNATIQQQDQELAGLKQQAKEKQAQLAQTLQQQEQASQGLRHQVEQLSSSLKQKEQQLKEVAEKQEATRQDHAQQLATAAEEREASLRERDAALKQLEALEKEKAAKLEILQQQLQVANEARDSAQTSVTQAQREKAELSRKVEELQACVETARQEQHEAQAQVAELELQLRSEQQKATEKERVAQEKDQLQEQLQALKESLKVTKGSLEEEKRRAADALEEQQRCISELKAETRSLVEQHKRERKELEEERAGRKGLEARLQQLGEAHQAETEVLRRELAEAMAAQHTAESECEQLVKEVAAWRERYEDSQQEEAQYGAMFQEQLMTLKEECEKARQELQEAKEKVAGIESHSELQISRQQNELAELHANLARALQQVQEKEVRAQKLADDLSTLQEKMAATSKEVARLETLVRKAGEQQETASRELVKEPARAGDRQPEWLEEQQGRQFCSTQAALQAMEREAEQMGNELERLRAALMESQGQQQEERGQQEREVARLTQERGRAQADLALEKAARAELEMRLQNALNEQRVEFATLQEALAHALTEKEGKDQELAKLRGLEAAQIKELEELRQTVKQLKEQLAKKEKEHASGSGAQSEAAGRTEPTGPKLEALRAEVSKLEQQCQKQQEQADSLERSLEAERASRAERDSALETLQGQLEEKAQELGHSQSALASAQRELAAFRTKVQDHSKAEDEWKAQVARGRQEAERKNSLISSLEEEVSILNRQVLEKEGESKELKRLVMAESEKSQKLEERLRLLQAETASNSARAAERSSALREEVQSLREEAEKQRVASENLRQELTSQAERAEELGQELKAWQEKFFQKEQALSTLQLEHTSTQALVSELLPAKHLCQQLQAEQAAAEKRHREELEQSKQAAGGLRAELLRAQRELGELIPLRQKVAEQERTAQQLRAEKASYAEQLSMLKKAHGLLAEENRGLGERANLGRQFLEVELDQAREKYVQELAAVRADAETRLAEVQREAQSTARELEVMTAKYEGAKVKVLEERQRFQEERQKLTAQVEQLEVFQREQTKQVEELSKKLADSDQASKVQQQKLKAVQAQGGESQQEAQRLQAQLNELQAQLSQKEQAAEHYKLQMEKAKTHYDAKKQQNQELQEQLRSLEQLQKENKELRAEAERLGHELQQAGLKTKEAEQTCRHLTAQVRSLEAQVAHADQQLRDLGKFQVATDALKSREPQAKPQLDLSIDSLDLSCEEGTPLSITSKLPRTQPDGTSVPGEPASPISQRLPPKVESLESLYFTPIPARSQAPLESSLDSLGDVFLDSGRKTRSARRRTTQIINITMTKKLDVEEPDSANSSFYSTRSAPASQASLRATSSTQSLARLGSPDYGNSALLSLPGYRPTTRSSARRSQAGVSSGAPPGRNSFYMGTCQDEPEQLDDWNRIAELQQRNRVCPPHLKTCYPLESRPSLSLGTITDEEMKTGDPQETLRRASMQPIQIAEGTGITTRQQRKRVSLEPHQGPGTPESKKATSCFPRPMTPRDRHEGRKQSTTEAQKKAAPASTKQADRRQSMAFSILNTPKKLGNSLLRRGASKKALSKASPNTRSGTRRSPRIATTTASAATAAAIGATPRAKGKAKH", "UniProt Q96RS6": "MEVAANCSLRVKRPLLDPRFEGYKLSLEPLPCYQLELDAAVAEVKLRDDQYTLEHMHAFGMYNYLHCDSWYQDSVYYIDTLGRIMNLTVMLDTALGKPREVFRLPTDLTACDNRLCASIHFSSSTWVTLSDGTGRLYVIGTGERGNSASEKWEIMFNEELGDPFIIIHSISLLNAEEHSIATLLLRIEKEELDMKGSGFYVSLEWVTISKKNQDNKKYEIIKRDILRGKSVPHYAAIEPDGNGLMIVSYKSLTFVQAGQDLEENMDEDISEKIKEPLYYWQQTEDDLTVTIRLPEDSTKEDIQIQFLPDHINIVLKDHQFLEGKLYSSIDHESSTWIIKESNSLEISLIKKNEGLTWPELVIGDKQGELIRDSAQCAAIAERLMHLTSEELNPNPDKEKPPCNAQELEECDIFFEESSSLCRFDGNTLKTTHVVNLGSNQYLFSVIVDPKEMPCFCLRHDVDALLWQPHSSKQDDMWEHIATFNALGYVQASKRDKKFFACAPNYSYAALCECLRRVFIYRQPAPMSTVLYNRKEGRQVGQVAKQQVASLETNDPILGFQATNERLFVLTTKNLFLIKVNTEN", "UniProt Q9ULX3": "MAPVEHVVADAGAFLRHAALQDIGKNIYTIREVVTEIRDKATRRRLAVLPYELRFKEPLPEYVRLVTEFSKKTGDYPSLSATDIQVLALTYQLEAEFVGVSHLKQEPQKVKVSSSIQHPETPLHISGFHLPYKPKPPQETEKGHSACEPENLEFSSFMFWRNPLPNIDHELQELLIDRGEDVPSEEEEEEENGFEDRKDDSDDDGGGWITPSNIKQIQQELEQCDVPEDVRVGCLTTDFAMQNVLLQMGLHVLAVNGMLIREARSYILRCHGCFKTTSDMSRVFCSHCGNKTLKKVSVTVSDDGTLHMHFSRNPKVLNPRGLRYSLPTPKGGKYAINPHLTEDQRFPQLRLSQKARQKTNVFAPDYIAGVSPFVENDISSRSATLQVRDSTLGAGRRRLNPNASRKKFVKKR"}, "source": "the supplement of paper PMC10849652", "note": "The list shows a part of the results."}
{"compound": "CS(=O)(=O)N1CCN(Cc2cc3nc(-c4cccc5[nH]ncc45)nc(N4CCOCC4)c3s2)CC1 [pictilisib]", "experiment": "log2 fold change, soluble protein after heating vs DMSO (PISA); higher = thermal stabilisation; K562 lysate, 10 uM; active = over 0.2 and 3.5 SD of the protein, either way, in both replicates (recomputed)", "procedure,_shortened": "(§1)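 Log-two fold change in thermal stability relative to solvent controls is reported from duplicates. For each sample, crude K562 extract from dounce-homogenised pellets in PBS pH 7.4 with 1 mM MgCl2, at 1 mg/mL protein, was treated with 10 μM compound for 30 min. Aliquots heated for 3 min across 48°C-58°C were pooled, brought to 0.5% NP-40 at 4°C and cleared at 21,000xg for 90 min. The supernatant was quantified by TMTpro 16plex LC-MS/MS with channel sums equalised.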"}
{"target": "NSFL1C isoform 5 (UniProt Q9UNZ2)", "log2 fold change": "inactive: -0.007"}
{"target": "NUDCD3 (UniProt Q8IVD9)", "log2 fold change": "inactive: -0.033"}
{"target": "NSMCE2 (UniProt Q96MF7)", "log2 fold change": "inactive: 0.013"}
{"target": "NME6 (UniProt O75414)", "log2 fold change": "inactive: 0.019"}
{"target": "NOSIP (UniProt Q9Y314)", "log2 fold change": "inactive: -0.042"}
{"target": "NT5C3A (UniProt Q9H0P0)", "log2 fold change": "inactive: -0.03"}
{"target": "NPM1 (UniProt P06748)", "log2 fold change": "inactive: 0.021"}
{"target": "NUDT7 (UniProt P0C024)", "log2 fold change": "inactive: -0.068"}
{"target": "NUP133 (UniProt Q8WUM0)", "log2 fold change": "inactive: -0.01"}
{"target": "NT5DC2 isoform 2 (UniProt Q9H857)", "log2 fold change": "inactive: -0.019"}
{"target": "NRAS (UniProt P01111)", "log2 fold change": "inactive: -0.018"}
{"target": "NUMA1 (UniProt Q14980)", "log2 fold change": "inactive: -0.021"}
{"target": "NUDCD2 (UniProt Q8WVJ2)", "log2 fold change": "inactive: -0.051"}
{"target": "NUDCD1 (UniProt Q96RS6)", "log2 fold change": "inactive: 0.002"}
{"target": "NOB1 (UniProt Q9ULX3)", "log2 fold change": "inactive: 0.01"}
{"compound": "C[C@@H](Oc1cc(-c2cnn(C3CCNCC3)c2)cnc1N)c1c(Cl)ccc(F)c1Cl [crizotinib]", "experiment": "log2 fold change, soluble protein after heating vs DMSO (PISA); higher = thermal stabilisation; K562 lysate, 10 uM; active = over 0.2 and 3.5 SD of the protein, either way, in both replicates (recomputed)", "procedure,_shortened": "as §1"}
{"target": "NMNAT1 (UniProt Q9HAN9)", "log2 fold change": "inactive: 0.008"}
{"target": "NOP56 (UniProt O00567)", "log2 fold change": "inactive: -0.013"}
{"target": "NOP58 (UniProt Q9Y2X3)", "log2 fold change": "inactive: -0.007"}
{"target": "NSMAF (UniProt Q92636)", "log2 fold change": "inactive: -0.102"}
{"target": "NME7 (UniProt Q9Y5B8)", "log2 fold change": "inactive: -0.038"}
{"target": "NSUN5 isoform 2 (UniProt Q96P11)", "log2 fold change": "inactive: -0.014"}
{"target": "NOLC1 isoform 2 (UniProt Q14978)", "log2 fold change": "inactive: 0.013"}
{"target": "NOP14 (UniProt P78316)", "log2 fold change": "inactive: -0.042"}
{"target": "NSDHL (UniProt Q15738)", "log2 fold change": "inactive: 0.104"}
{"target": "NUDT4 (UniProt Q9NZJ9)", "log2 fold change": "inactive: 0.032"}
{"target": "NSMCE3 (UniProt Q96MG7)", "log2 fold change": "inactive: -0.099"}
{"target": "NSUN6 (UniProt Q8TEA1)", "log2 fold change": "inactive: -0.002"}
{"target": "NUDT16 (UniProt Q96DE0)", "log2 fold change": "inactive: 0.001"}
{"target": "NUMB (UniProt P49757)", "log2 fold change": "inactive: 0.02"}
{"target": "NSFL1C isoform 5 (UniProt Q9UNZ2)", "log2 fold change": "inactive: 0.058"}
{"target": "NUDCD3 (UniProt Q8IVD9)", "log2 fold change": "inactive: -0.012"}
{"target": "NSMCE2 (UniProt Q96MF7)", "log2 fold change": "inactive: 0.043"}
{"target": "NME6 (UniProt O75414)", "log2 fold change": "inactive: 0.056"}
{"target": "NOSIP (UniProt Q9Y314)", "log2 fold change": "inactive: -0.026"}
{"target": "NT5C3A (UniProt Q9H0P0)", "log2 fold change": "inactive: -0.035"}
{"target": "NPM1 (UniProt P06748)", "log2 fold change": "inactive: 0.032"}
{"target": "NUDT7 (UniProt P0C024)", "log2 fold change": "inactive: -0.08"}
{"target": "NUP133 (UniProt Q8WUM0)", "log2 fold change": "inactive: -0.093"}
{"target": "NT5DC2 isoform 2 (UniProt Q9H857)", "log2 fold change": "inactive: 0.004"}
{"target": "NRAS (UniProt P01111)", "log2 fold change": "inactive: 0.08"}
{"target": "NUMA1 (UniProt Q14980)", "log2 fold change": "inactive: -0.017"}
{"target": "NUDCD2 (UniProt Q8WVJ2)", "log2 fold change": "inactive: -0.052"}
{"target": "NUDCD1 (UniProt Q96RS6)", "log2 fold change": "inactive: -0.003"}
{"target": "NOB1 (UniProt Q9ULX3)", "log2 fold change": "inactive: -0.019"}
{"compound": "C[C@H](C1=CC=C(C=C1)C(=O)NC2=C3C=CNC3=NC=C2)N", "experiment": "log2 fold change, soluble protein after heating vs DMSO (PISA); higher = thermal stabilisation; K562 lysate, 10 uM; active = over 0.2 and 3.5 SD of the protein, either way, in both replicates (recomputed)", "procedure,_shortened": "as §1"}
{"target": "NMNAT1 (UniProt Q9HAN9)", "log2 fold change": "inactive: -0.022"}
{"target": "NOP56 (UniProt O00567)", "log2 fold change": "inactive: 0.037"}
{"target": "NOP58 (UniProt Q9Y2X3)", "log2 fold change": "inactive: 0.005"}
{"target": "NSMAF (UniProt Q92636)", "log2 fold change": "inactive: -0.05"}
{"target": "NME7 (UniProt Q9Y5B8)", "log2 fold change": "inactive: -0.036"}
{"target": "NSUN5 isoform 2 (UniProt Q96P11)", "log2 fold change": "inactive: 0.027"}
{"target": "NOLC1 isoform 2 (UniProt Q14978)", "log2 fold change": "inactive: -0.086"}
{"target": "NOP14 (UniProt P78316)", "log2 fold change": "inactive: -0.065"}
{"target": "NSDHL (UniProt Q15738)", "log2 fold change": "inactive: -0.058"}
{"target": "NUDT4 (UniProt Q9NZJ9)", "log2 fold change": "inactive: 0.166"}
{"target": "NSMCE3 (UniProt Q96MG7)", "log2 fold change": "inactive: -0.021"}
{"target": "NSUN6 (UniProt Q8TEA1)", "log2 fold change": "inactive: -0.019"}
{"target": "NUDT16 (UniProt Q96DE0)", "log2 fold change": "inactive: 0.005"}
{"target": "NUMB (UniProt P49757)", "log2 fold change": "inactive: -0.057"}
{"target": "NSFL1C isoform 5 (UniProt Q9UNZ2)", "log2 fold change": "inactive: -0.018"}
{"target": "NUDCD3 (UniProt Q8IVD9)", "log2 fold change": "inactive: 0.013"}
{"target": "NSMCE2 (UniProt Q96MF7)", "log2 fold change": "inactive: 0.055"}
{"target": "NME6 (UniProt O75414)", "log2 fold change": "inactive: -0.011"}
{"target": "NOSIP (UniProt Q9Y314)", "log2 fold change": "inactive: 0.02"}
{"target": "NT5C3A (UniProt Q9H0P0)", "log2 fold change": "inactive: -0.032"}
{"target": "NPM1 (UniProt P06748)", "log2 fold change": "inactive: 0.037"}
{"target": "NUDT7 (UniProt P0C024)", "log2 fold change": "inactive: 0.116"}
{"target": "NUP133 (UniProt Q8WUM0)", "log2 fold change": "inactive: -0.075"}
{"target": "NT5DC2 isoform 2 (UniProt Q9H857)", "log2 fold change": "inactive: -0.018"}
{"target": "NRAS (UniProt P01111)", "log2 fold change": "inactive: 0.017"}
{"target": "NUMA1 (UniProt Q14980)", "log2 fold change": "inactive: 0.024"}
{"target": "NUDCD2 (UniProt Q8WVJ2)", "log2 fold change": "inactive: -0.056"}
{"target": "NUDCD1 (UniProt Q96RS6)", "log2 fold change": "inactive: -0.046"}
{"target": "NOB1 (UniProt Q9ULX3)", "log2 fold change": "active: 0.283"}
